Reference: the supplement of paper PMC12067093, “Discovery and optimisation of a covalent ligand for TRIM25 and its application to targeted protein ubiquitination” (Chemical Science, 2025)
The list shows a part of the results.

Amino acid sequences for entries named in this document (tags omitted). A change or cut given only in a name is not applied to a line headed by its entry.
UniProt P23588, whole entry, looked up: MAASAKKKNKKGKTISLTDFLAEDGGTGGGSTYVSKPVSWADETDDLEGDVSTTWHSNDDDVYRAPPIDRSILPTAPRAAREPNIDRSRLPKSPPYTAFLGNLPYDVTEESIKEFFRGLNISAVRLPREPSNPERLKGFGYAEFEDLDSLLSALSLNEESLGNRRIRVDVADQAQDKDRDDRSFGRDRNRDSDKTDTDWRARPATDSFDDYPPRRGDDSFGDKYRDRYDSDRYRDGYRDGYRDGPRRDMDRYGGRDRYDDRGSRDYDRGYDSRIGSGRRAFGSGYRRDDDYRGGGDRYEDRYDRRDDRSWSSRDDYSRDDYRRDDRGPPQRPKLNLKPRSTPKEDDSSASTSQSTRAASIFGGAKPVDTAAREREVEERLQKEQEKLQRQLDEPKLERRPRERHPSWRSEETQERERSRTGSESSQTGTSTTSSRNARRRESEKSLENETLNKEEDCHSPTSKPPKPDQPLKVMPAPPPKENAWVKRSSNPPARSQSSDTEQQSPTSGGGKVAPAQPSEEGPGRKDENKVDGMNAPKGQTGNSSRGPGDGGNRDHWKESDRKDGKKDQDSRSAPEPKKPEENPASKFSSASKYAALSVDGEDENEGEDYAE
UniProt P55010, whole entry, looked up: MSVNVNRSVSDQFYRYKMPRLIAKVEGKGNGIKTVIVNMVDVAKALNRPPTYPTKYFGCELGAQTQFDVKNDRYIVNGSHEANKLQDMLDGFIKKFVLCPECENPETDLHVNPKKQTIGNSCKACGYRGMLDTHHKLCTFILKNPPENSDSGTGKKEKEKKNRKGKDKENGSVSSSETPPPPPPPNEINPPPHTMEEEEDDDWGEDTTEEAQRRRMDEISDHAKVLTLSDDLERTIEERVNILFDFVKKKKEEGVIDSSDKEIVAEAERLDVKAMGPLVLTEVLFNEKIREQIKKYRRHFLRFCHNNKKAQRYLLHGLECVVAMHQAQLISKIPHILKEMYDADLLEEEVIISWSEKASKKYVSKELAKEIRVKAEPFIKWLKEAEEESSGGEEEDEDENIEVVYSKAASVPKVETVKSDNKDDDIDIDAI
UniProt Q9UM22: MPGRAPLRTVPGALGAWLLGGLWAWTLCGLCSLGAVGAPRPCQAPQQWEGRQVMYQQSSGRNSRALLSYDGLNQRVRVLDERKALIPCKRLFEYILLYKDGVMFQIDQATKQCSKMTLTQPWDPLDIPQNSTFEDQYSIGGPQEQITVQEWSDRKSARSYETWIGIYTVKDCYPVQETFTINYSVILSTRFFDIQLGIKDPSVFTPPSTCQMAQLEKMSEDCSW
UniProt O15372, whole entry: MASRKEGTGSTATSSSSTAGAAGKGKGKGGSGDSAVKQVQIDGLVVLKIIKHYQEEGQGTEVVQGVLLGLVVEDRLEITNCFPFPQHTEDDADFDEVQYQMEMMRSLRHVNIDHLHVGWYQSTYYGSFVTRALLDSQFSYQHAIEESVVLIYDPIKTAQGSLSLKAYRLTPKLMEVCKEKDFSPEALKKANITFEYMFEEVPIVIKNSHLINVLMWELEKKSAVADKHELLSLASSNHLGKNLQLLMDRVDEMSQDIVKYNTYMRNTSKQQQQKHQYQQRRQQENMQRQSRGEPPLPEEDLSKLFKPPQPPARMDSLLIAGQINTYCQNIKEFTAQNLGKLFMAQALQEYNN
UniProt Q6IA86: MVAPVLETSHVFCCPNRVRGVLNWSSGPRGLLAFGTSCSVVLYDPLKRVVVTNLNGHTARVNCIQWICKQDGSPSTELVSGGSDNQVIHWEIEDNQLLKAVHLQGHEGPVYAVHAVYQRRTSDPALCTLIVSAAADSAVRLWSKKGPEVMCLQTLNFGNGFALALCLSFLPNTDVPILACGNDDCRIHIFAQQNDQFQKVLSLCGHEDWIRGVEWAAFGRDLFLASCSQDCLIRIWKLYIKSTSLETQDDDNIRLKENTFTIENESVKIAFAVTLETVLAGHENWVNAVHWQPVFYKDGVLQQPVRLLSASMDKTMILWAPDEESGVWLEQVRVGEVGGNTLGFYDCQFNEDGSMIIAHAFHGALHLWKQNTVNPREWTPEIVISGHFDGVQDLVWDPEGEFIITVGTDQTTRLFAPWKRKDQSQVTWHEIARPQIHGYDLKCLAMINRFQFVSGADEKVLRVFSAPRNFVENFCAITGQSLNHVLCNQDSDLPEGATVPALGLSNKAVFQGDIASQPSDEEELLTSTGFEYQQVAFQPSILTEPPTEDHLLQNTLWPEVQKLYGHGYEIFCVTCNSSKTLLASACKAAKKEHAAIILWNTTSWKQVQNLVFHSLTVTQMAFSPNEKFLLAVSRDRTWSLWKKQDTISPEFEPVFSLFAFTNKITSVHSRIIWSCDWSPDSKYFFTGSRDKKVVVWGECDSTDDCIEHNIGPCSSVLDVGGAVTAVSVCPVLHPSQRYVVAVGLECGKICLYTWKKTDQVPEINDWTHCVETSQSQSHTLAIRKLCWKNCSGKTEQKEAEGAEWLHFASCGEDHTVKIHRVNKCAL
UniProt Q15369, whole entry, looked up: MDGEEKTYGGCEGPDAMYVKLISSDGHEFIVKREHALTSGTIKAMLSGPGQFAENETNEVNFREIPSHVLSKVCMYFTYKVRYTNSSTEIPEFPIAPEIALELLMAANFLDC
UniProt P06730, whole entry: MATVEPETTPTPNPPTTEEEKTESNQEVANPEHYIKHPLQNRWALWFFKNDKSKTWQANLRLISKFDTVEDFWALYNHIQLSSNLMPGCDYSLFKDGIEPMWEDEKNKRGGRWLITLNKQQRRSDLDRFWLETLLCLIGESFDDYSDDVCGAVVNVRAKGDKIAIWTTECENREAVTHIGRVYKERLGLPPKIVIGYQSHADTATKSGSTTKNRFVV
UniProt O95834: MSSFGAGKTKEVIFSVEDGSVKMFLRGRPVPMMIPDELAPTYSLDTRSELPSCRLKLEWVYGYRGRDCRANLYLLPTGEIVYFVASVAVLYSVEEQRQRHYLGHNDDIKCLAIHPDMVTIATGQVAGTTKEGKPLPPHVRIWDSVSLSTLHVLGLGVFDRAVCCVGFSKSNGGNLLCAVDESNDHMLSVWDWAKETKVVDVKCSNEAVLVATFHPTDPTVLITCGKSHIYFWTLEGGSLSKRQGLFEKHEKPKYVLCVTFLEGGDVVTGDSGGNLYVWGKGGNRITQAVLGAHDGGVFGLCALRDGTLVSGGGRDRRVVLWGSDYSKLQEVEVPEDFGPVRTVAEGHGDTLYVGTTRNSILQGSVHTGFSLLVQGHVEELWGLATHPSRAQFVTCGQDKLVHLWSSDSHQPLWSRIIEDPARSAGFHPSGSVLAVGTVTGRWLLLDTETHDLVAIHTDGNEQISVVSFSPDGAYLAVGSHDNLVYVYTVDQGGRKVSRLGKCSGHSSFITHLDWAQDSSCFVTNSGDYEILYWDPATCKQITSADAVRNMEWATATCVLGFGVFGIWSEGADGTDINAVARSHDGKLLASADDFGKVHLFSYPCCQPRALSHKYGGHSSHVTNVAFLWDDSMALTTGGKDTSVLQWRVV
UniProt Q9UBC2: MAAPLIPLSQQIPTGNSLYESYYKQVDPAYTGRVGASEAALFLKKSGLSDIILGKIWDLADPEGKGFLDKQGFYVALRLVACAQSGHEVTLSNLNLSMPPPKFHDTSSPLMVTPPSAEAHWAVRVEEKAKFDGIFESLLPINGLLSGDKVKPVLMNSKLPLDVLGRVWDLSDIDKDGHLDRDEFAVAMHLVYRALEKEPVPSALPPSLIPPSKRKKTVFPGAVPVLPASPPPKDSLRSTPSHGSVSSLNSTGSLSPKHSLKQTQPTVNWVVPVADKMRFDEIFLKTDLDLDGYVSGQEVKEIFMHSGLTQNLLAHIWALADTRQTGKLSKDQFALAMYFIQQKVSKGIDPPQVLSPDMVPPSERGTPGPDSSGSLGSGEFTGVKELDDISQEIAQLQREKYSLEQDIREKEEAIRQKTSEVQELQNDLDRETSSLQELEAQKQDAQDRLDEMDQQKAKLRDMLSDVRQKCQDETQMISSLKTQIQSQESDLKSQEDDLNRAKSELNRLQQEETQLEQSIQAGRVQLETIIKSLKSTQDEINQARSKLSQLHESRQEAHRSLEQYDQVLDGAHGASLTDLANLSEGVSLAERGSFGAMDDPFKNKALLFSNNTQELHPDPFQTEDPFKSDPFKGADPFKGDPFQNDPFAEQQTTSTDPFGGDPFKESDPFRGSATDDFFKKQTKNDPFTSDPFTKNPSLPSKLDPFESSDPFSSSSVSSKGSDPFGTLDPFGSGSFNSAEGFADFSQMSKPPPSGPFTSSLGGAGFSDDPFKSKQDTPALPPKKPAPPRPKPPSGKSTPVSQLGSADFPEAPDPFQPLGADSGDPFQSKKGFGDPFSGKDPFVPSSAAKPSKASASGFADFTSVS
UniProt O43402: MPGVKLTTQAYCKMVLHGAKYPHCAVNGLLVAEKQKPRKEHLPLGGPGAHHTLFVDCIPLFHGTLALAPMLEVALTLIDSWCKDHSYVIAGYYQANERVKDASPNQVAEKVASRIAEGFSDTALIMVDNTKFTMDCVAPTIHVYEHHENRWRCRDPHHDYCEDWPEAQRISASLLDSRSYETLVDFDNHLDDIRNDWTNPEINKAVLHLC
UniProt Q15723: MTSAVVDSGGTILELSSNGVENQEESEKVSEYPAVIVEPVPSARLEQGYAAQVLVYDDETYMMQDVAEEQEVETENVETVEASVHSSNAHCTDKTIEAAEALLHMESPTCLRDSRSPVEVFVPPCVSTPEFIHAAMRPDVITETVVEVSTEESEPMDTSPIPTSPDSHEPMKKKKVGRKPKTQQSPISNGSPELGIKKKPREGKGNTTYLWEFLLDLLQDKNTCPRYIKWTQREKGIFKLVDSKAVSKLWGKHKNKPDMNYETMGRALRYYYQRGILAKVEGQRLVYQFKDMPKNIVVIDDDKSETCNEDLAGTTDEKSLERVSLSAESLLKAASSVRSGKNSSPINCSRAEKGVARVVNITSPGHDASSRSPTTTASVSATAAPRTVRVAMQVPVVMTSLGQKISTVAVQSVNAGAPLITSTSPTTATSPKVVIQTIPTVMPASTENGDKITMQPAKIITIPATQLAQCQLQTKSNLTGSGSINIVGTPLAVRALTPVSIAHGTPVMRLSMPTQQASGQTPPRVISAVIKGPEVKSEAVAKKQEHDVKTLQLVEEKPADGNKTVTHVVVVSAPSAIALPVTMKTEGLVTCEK
UniProt Q7L2H7, whole entry, looked up: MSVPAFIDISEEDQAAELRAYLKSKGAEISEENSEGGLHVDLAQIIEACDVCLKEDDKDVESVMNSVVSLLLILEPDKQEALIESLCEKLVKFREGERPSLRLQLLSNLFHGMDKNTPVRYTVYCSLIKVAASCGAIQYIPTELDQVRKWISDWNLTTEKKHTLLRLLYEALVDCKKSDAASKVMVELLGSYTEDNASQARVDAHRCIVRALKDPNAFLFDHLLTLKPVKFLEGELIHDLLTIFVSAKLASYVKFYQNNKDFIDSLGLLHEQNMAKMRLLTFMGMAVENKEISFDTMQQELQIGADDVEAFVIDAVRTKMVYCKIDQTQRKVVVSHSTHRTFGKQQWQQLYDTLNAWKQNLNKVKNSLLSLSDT
UniProt Q8N766: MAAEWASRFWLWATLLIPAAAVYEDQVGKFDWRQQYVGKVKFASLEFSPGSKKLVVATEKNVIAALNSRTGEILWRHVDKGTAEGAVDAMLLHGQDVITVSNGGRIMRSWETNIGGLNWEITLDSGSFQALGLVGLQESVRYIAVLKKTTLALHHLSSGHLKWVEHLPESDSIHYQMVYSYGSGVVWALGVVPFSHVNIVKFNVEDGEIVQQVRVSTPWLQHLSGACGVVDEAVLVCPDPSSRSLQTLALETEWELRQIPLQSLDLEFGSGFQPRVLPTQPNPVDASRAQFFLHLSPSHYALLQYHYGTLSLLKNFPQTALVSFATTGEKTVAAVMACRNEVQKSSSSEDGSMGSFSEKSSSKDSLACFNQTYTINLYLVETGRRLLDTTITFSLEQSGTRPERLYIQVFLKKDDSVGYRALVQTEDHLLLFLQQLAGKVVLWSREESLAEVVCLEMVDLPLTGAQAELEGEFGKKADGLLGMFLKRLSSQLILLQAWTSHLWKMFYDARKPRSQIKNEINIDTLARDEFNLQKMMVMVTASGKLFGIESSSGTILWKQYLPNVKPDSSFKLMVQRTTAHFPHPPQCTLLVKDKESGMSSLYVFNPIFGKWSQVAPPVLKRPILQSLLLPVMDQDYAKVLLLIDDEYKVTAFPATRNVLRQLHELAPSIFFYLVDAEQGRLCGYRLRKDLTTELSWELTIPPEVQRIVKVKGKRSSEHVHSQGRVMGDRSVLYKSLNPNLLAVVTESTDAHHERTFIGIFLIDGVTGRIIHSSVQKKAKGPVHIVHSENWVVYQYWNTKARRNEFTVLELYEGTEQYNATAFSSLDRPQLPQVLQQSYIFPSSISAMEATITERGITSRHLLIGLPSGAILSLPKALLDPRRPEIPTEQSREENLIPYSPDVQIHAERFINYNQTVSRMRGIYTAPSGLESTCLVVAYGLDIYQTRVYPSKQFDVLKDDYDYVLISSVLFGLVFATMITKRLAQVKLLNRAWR

Compound: CC1Cc2ccccc2N1C(=O)C1CCCN(C1)C(=O)CCl (mixture of isomers) [TRIM25 ligand 11 (diastereomer mixture)]
Assay: probe-labelled cysteine peptide fold change vs DMSO (competition) (log2 fold change); higher = less target engagement (more negative = stronger competition)
Details: 10 µM; THP-1; incubation time: 4 h
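Note: competitive chemoproteomic profiling in live THP-1 cells with an iodoacetamide desthiobiotin (IA-DTB) probe, comparing probe-labelled peptide intensities in compound-treated cells against DMSO-treated controls.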

Row | Target | probe-labelled cysteine peptide fold change
1 | EPB41L2_O43491_424_LGVCANGLLIYK (UniProt O43491) | -0.0375
2 | EIF4B_P23588_457_SLENETLNKEEDCHSPTSKPPKPDQPLK (UniProt P23588) | -0.163
3 | ELMO1_Q92556_663_HEYCIWTDGLNALLGK (UniProt Q92556) | 0.47
4 | EIF5_P55010_320_YLLHGLECVVAMHQAQLISK (UniProt P55010) | 0.0109
5 | EPDR1_Q9UM22_88_ALIPCK (UniProt Q9UM22) | 0.0598
6 | EIF5B_O60841_1092_HIAVFPCK (UniProt O60841) | -0.0742
7 | EPRS_P07814_623_VTWLAETTHALPIPVICVTYEHLITKPVLGK (UniProt P07814) | -0.259
8 | EIF3H_O15372_177_LMEVCK (UniProt O15372) | 0.0807
9 | EML3_Q32P44_825_VHLFQYPCAR (UniProt Q32P44) | 0.239
10 | ELP2_Q6IA86_38_GLLAFGTSCSVVLYDPLK (UniProt Q6IA86) | 0.157
11 | EPRS_P07814_1148_LNQWCNVVR (UniProt P07814) | 0.033
12 | ERAP1_Q9NZ08_743_SQLLLLACVHNYQPCVQR (UniProt Q9NZ08) | 0.123
13 | EPRS_P07814_92+105_LSSCDSFTSTINELNHCLSLR (UniProt P07814) | 0.0478
14 | EIF3E_P60228_250_GRDNIIDLFLYQPQYLNAIQTMCPHILR (UniProt P60228) | -0.0393
15 | ELOC_Q15369_11_TYGGCEGPDAMYVK (UniProt Q15369) | -0.0586
16 | EPRS_P07814_1076_KLGVENCYFPMFVSQSALEK (UniProt P07814) | 0.235
17 | ELP2_Q6IA86_13_VAPVLETSHVFCCPNR (UniProt Q6IA86) | 0.0804
18 | EIF4E_P06730_170_IAIWTTECENR (UniProt P06730) | 0.205

Row | Target | probe-labelled cysteine peptide fold change
19 | ELP2_Q6IA86_675_IIWSCDWSPDSK (UniProt Q6IA86) | -0.063
20 | EML2_O95834_604+605_VHLFSYPCCQPR (UniProt O95834) | -0.129
21 | EPS15L1_Q9UBC2_82_LVACAQSGHEVTLSNLNLSMPPPK (UniProt Q9UBC2) | 0.426
22 | EML4_Q9HC35_368_GVGCLDFSK (UniProt Q9HC35) | 0.182
23 | EIF5B_O60841_749_CPFIVALNK (UniProt O60841) | 0.184
24 | EP300_Q09472_388_SCQVAHCASSR (UniProt Q09472) | 0.161
25 | EML4_Q9HC35_638_LVDEPGHCADFHPSGTVVAIGTHSGR (UniProt Q9HC35) | 0.109
26 | EMC8_O43402_12_LTTQAYCK (UniProt O43402) | -0.0682
27 | ELF2_Q15723_348_NSSPINCSR (UniProt Q15723) | -0.123
28 | EIF3M_Q7L2H7_52_GAEISEENSEGGLHVDLAQIIEACDVCLK (UniProt Q7L2H7) | -0.0739
29 | EPRS_P07814_1076_LGVENCYFPMFVSQSALEK (UniProt P07814) | 0.00656
30 | EML4_Q9HC35_617_QVCLWNSMEHR (UniProt Q9HC35) | 0.0163
31 | EMC1_Q8N766_338_TVAAVMACR (UniProt Q8N766) | 0.153
32 | EPM2AIP1_Q7L775_465_IFDPDRYQMVICR (UniProt Q7L775) | -0.0236
33 | EIF5_P55010_138_LCTFILK (UniProt P55010) | -0.136
34 | EPC2_Q52LR7_626_AQGSSTSDCMSK (UniProt Q52LR7) | -0.0677
35 | EMC8_O43402_24_YPHCAVNGLLVAEK (UniProt O43402) | -0.00157
36 | ELP1_O95163_836_YCLSILTSHVK (UniProt O95163) | -0.0405

Same assay, conditions: 50 µM; THP-1; incubation time: 4 h

Row | Target | probe-labelled cysteine peptide fold change
37 | EPB41L2_O43491_424_LGVCANGLLIYK (UniProt O43491) | 0.0374
38 | EIF4B_P23588_457_SLENETLNKEEDCHSPTSKPPKPDQPLK (UniProt P23588) | -0.0876
39 | ELMO1_Q92556_663_HEYCIWTDGLNALLGK (UniProt Q92556) | 0.298
40 | EIF5_P55010_320_YLLHGLECVVAMHQAQLISK (UniProt P55010) | 0.0824
41 | EPDR1_Q9UM22_88_ALIPCK (UniProt Q9UM22) | 0.0572
42 | EIF5B_O60841_1092_HIAVFPCK (UniProt O60841) | 0.0436
43 | EPRS_P07814_623_VTWLAETTHALPIPVICVTYEHLITKPVLGK (UniProt P07814) | 0.127
44 | EIF3H_O15372_177_LMEVCK (UniProt O15372) | -0.024
45 | EML3_Q32P44_825_VHLFQYPCAR (UniProt Q32P44) | 0.385
46 | ELP2_Q6IA86_38_GLLAFGTSCSVVLYDPLK (UniProt Q6IA86) | 0.159
47 | EPRS_P07814_1148_LNQWCNVVR (UniProt P07814) | 0.0217
48 | ERAP1_Q9NZ08_743_SQLLLLACVHNYQPCVQR (UniProt Q9NZ08) | 0.26
49 | EPRS_P07814_92+105_LSSCDSFTSTINELNHCLSLR (UniProt P07814) | 0.0577
50 | EIF3E_P60228_250_GRDNIIDLFLYQPQYLNAIQTMCPHILR (UniProt P60228) | -0.0709
51 | ELOC_Q15369_11_TYGGCEGPDAMYVK (UniProt Q15369) | -0.117
52 | EPRS_P07814_1076_KLGVENCYFPMFVSQSALEK (UniProt P07814) | 0.111
53 | ELP2_Q6IA86_13_VAPVLETSHVFCCPNR (UniProt Q6IA86) | -0.113
54 | EIF4E_P06730_170_IAIWTTECENR (UniProt P06730) | 0.142

Row | Target | probe-labelled cysteine peptide fold change
55 | ELP2_Q6IA86_675_IIWSCDWSPDSK (UniProt Q6IA86) | 0.204
56 | EML2_O95834_604+605_VHLFSYPCCQPR (UniProt O95834) | -0.0141
57 | EPS15L1_Q9UBC2_82_LVACAQSGHEVTLSNLNLSMPPPK (UniProt Q9UBC2) | 0.39
58 | EML4_Q9HC35_368_GVGCLDFSK (UniProt Q9HC35) | 0.201
59 | EIF5B_O60841_749_CPFIVALNK (UniProt O60841) | 0.445
60 | EP300_Q09472_388_SCQVAHCASSR (UniProt Q09472) | 0.053
61 | EML4_Q9HC35_638_LVDEPGHCADFHPSGTVVAIGTHSGR (UniProt Q9HC35) | -0.0818
62 | EMC8_O43402_12_LTTQAYCK (UniProt O43402) | 0.0671
63 | ELF2_Q15723_348_NSSPINCSR (UniProt Q15723) | -0.156
64 | EIF3M_Q7L2H7_52_GAEISEENSEGGLHVDLAQIIEACDVCLK (UniProt Q7L2H7) | -0.0209
65 | EPRS_P07814_1076_LGVENCYFPMFVSQSALEK (UniProt P07814) | -0.196
66 | EML4_Q9HC35_617_QVCLWNSMEHR (UniProt Q9HC35) | -0.099
67 | EMC1_Q8N766_338_TVAAVMACR (UniProt Q8N766) | 0.0463
68 | EPM2AIP1_Q7L775_465_IFDPDRYQMVICR (UniProt Q7L775) | -0.227
69 | EIF5_P55010_138_LCTFILK (UniProt P55010) | -0.195
70 | EPC2_Q52LR7_626_AQGSSTSDCMSK (UniProt Q52LR7) | -0.224
71 | EMC8_O43402_24_YPHCAVNGLLVAEK (UniProt O43402) | -0.0673
72 | ELP1_O95163_836_YCLSILTSHVK (UniProt O95163) | -0.0807
